Assay results published in PMC6739330.
These are yes or no findings as the source states them, for the method shown. Binding seen in cells or lysates may run through a third protein. Some results given as binding are weak or reduced against the parent protein; the word gives no strength.

Chains of the proteins cited; added tags and fusions are not shown. Lines headed by an entry give the natural chain unless they say otherwise; changes in a name come on top. A line that says so, or that is headed by a name, gives the form on record, which may keep a tag or linker.
CD56 (NCAM, neural cell adhesion molecule) tagged with CFP or YFP, on CD8+ T cells (P13591-1, form named): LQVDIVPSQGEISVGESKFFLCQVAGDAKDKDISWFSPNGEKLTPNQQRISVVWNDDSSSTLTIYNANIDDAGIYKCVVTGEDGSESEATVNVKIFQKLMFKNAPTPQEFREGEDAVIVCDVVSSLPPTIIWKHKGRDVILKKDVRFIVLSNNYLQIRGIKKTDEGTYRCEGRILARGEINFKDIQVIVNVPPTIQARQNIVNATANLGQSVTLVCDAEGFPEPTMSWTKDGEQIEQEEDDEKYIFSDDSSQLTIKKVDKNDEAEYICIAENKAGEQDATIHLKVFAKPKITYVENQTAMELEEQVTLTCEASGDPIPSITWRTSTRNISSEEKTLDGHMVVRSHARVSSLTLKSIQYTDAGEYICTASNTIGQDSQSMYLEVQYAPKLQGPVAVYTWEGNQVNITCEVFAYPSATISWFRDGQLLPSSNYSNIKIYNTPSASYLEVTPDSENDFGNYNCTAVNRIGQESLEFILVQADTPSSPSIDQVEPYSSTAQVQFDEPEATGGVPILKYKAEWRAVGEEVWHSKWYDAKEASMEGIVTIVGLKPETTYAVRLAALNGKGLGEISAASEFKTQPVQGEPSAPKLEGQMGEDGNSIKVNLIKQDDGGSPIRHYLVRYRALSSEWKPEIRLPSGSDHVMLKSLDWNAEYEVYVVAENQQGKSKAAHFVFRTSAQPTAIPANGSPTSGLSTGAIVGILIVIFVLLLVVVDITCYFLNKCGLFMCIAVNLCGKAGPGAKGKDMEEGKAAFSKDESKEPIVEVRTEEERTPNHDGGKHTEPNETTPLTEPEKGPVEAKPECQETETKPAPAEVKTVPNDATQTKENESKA

What was measured:
[1] = target: CD56 (NCAM, neural cell adhesion molecule) tagged with CFP or YFP, on CD8+ T cells (UniProt P13591); assay: FRET or BRET; as a1, with P3DE + P3G peptides at various concentrations; the pair that is blocked
[2] = target: CD56 (NCAM, neural cell adhesion molecule) tagged with CFP or YFP, on CD8+ T cells (UniProt P13591); assay: FRET or BRET; intercellular: CFP-CD56-expressing CD8+ T cells mixed 1:1 (10^6 cells each) with YFP-CD56-expressing CD8+ T cells, phenol red-free medium, 96-well black plates, 4 h; emission ratio 500~550 nm/495~505 nm

CD56 (NCAM, neural cell adhesion molecule) tagged with CFP or YFP, on CD8+ T cells (from UniProt P13591-1 20-848) (receptor)
binding [1]: binds
binding [2]: binds
